Results published in patent US9056048B2, “Synthesis and use of cationic steroids for anti-inflammatory drug therapy” (priority 2001, dated 2015).
For at least one compound, name, drawing or mass did not settle the structure.

Assays:
[1] = tested on: bone marrow-derived macrophage (BMM); assay: Osteoclastogenesis in BMM culture (TRAP); assay type: cell-based, C57Bl/6 mice
[2] = Hyaluronic acid release assay (dialysis); details: PBS, room temperature
Description: Hyaluronic acid sodium salt (Rooster Comb HA; Sigma) was diluted in PBS at 1 mg/ml to mimic an anionic glycosaminoglycan at a nominal interstitial concentration.

[3] = tested on: bovine aortic endothelial cells; assay: Lipofection of BAEC with EGFP plasmid; assay type: cell-based; details: alone, unconjugated
[4] = tested on: GRE promoter construct (pGRE-SEAP); assay: Induction of transcription from GRE (GRE-SEAP promoter construct) in 293 cells; assay type: cell-based; details: 100 nM
Description: 293 cells were lipofected with GRE-SEAP plasmid in triplicate using 1 μg plasmid and 6 μg Lipofectamine per well in 24-well plates. […] After 24 hr of induction, 50 μl aliquots of growth media were analyzed for alkaline phosphatase activity using the SEAP fluorogenic assay following the manufacturer's instructions.

C[C@@H]1C[C@H]2[C@@H]3CCC4=CC(=O)C=C[C@]4(C)[C@@]3(F)[C@@H](O)C[C@]2(C)[C@@]1(O)C(=O)CO [dexamethasone]
TRAP activity [1]: large increase in TRAP activity
numbers of mature osteoclasts [1]: very low numbers of mature osteoclasts
time to elute from HA [2]: less than 5 hours
gene transfer activity [3]: no detectable gene transfer activity
SEAP transcription from GRE promoter [4]: statistically significant levels of SEAP transcription
